Measured values from publication PMC7821095.
No constants are given. Whether binding was seen depends on the method and setting. In cells and extracts the contact can be indirect. These calls come from enrichment with a bait or labelling near it, and not all partners need be listed.

T1: Plasmodium falciparum chitinase PfCHT1 (P. falciparum (endogenous in NF54 ookinetes)) (UniProt Q8I4R4)
T1 sequence: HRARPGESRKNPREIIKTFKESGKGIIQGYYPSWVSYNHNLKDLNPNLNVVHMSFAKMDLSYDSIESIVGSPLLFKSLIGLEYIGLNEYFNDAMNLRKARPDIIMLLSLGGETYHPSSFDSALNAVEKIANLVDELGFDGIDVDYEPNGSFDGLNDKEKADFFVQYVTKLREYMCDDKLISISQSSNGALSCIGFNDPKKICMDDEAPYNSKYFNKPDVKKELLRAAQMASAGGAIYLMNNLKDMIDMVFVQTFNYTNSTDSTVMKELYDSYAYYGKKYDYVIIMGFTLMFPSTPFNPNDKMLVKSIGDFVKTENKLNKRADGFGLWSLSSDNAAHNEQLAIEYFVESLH

B1: Plasmodium falciparum fructose-bisphosphate aldolase (enzyme, UniProt Q7KQL9 1-369)
chain: MAHCTEYMNAPKKLPADVAEELATTAQKLVQAGKGILAADESTQTIKKRFDNIKLENTIENRASYRDLLFGTKGLGKFISGAILFEETLFQKNEAGVPMVNLLHNENIIPGIKVDKGLVNIPCTDEEKSTQGLDGLAERCKEYYKAGARFAKWRTVLVIDTAKGKPTDLSIHETAWGLARYASICQQNRLVPIVEPEILADGPHSIEVCAVVTQKVLSCVFKALQENGVLLEGALLKPNMVTAGYECTAKTTTQDVGFLTVRTLRRTVPPALPGVVFLSGGQSEEEASVNLNSINALGPHPWALTFSYGRALQASVLNTWQGKKENVAKAREVLLQRAEANSLATYGKYKGGAGGENAGASLYEKKYVY

Tests used:
[1] = molecular target: T1, Plasmodium falciparum chitinase PfCHT1 (P. falciparum (endogenous in NF54 ookinetes)); assay: affinity purification with mass spectrometry; chitin beads in filtered serum-free P. falciparum ookinete culture supernatant; washed three times with PBS; proteins detached in 8M urea, LysC and trypsin, Orbitrap Fusion; normalized against zygote culture supernatant pull-down
[2] = molecular target: T1, Plasmodium falciparum chitinase PfCHT1 (P. falciparum (endogenous in NF54 ookinetes)); assay: mass spectrometry of the high molecular weight SDS-PAGE gel slice; P. falciparum chitin bead pull-down; SDS-PAGE gel slices including the PfCHT1 HMW complex and the 37 kDa PfCHT1, 1C3-positive bands under reduced and non-reduced conditions
[3] = molecular target: T1, Plasmodium falciparum chitinase PfCHT1 (P. falciparum (endogenous in NF54 ookinetes)); assay: affinity purification with mass spectrometry; chitin beads in filtered serum-free P. falciparum ookinete culture supernatant; washed three times with PBS; proteins detached in 8M urea, LysC and trypsin, Orbitrap Fusion; normalized against zygote culture supernatant pull-down; remark: listed apart in the source

| Molecule | binding [1] | binding [2] | binding [3] |
| --- | --- | --- | --- |
| Plasmodium falciparum secreted ookinete adhesive protein (SOAP) | binds | – | – |
| Plasmodium falciparum von Willebrand factor A domain-related protein (WARP) | binds | binds | – |
| B1 | – | – | binds |
